Laboratory results from patent US20050000529A1, “Method and compositions for imparting cooling effect to tobacco products” (priority 2001, published 2005).

assay: Cooling threshold in tap water, triangle test; format: in vivo; details: ratio of cooling threshold to odor threshold

Row | SMILES | Ratio (cool/odor)
1 | CC1=C(N2CCCC2)C(=O)CC1 [Compound 1, 3-methyl-2-(1-pyrrolidinyl)-2-cyclopenten-1-one] | 0.8
2 | CC1CC=C(N2CCCC2)C1=O (stereo not shown) [Compound 2, 5-methyl-2-(1-pyrrolidinyl)-2-cyclopenten-1-one] | 1.7
3 | CC1=C(N2CCCCC2)C(=O)CC1 [Compound 3, 3-methyl-2-(1-piperidinyl)-2-cyclopenten-1-one] | 0.8
4 | CCN(CC)C1=C(C)CCC1=O [Compound 4, 3-methyl-2-diethylamino-2-cyclopenten-1-one] | 10.0
5 | CC1CC=C(N2CCCCC2)C1=O (stereo not shown) [Compound 5, 5-methyl-2-(1-piperidinyl)-2-cyclopenten-1-one] | 2.7
6 | CCN(CC)C1=CCC(C)C1=O (stereo not shown) [Compound 6, 5-methyl-2-diethylamino-2-cyclopenten-1-one] | 2.1
7 | CCCCN(CCCC)C1=CCC(C)C1=O (stereo not shown) [Compound 7, 5-methyl-2-dibutylamino-2-cyclopenten-1-one] | 16.0
8 | CCC1CC=C(N2CCCC2)C1=O (stereo not shown) [Compound 9, 5-ethyl-2-(1-pyrrolidinyl)-2-cyclopenten-1-one] | 2.0
9 | CC1C=C(N2CCCC2)C(=O)C1C (stereo not shown) [Compound 10, (E)-4,5-dimethyl-2-(1-pyrrolidinyl)-2-cyclopenten-1-one] | 0.5
10 | CC1=C(N2CCCC2)C(=O)C(C)C1 (stereo not shown) [Compound 11, 3,5-dimethyl-2-(1-pyrrolidinyl)-2-cyclopenten-1-one] | 2.0
11 | CC1=C(N2CCCC2)C(=O)CC1C (stereo not shown) [Compound 12, 3,4-dimethyl-2-(1-pyrrolidinyl)-2-cyclopenten-1-one] | 2.0
12 | CC1=C(N2CCCC2)CCC1=O [Compound 14, 2-methyl-3-(1-pyrrolidinyl)-2-cyclopenten-1-one] | 8.0
13 | O=C1CCCC=C1N1CCCC1 [Compound 15, 2-(1-pyrrolidinyl)-2-cyclohexen-1-one] | 2.0
14 | CC1=C(N2CCCC2)C(=O)CCC1 [Compound 16, 3-methyl-2-(1-pyrrolidinyl)-2-cyclohexen-1-one] | 32.0
15 | CC1=C(N2CCCC2)C(=O)CC(C)(C)C1 [Compound 17, 3,5,5-trimethyl-2-(1-pyrrolidinyl)-2-cyclohexen-1-one] | 8.0
16 | CC1CCC=C(N2CCCC2)C1=O (stereo not shown) [Compound 18, 6-methyl-2-(1-pyrrolidinyl)-2-cyclohexen-1-one] | 4.0
17 | CC1CC(C)(C)C=C(N2CCCC2)C1=O (stereo not shown) [Compound 19, 4,4,6-trimethyl-2-(1-pyrrolidinyl)-2-cyclohexen-1-one] | 4.0
18 | CC1CC=C(N2CCOCC2)C1=O (stereo not shown) [Compound 20, 5-methyl-2-(1-morpholino)-2-cyclopenten-1-one] | 0.5
19 | COC(=O)C1CCCN1C1=CC[C@H](C)C1=O (stereo partly drawn) [Compound 21, (S)-5-methyl-2-(2-methoxycarbonyl-1-pyrrolidinyl)-2-cyclopenten-1-one] | <1
20 | CC1=C(N2CCC[C@H]2C(=O)O)C(=O)CC1 [Compound 22, (S)-3-methyl-2-(2-carboxy-l-pyrrolidinyl)-2-cyclopenten-1-one] | <1
21 | CC1=C(N2CCCC2)C(=O)C(C)O1 (stereo not drawn) [Compound 24, 2,5-dimethyl-4-(l-pyrrolidinyl)-3-(2H)-furanone] | 2.7
22 | CC1=C(N2CCCC2)C(=O)OC1C (stereo not shown) [Compound 26, 4,5-dimethyl-3-(1-pyrrolidinyl)-2-(5H)-furanone] | <0.1
